Test [1] addresses Staufen1 (Stau1), endogenous in JFH1 HCV-infected Huh7.5 cells (human (endogenous in Huh7.5)) (UniProt O95793). The test is described as follows: co-IP; lysate (50 μg) of JFH1 HCV-infected Huh7.5 cells, benzonase treated; 2 μg primary antibody, protein A/G Plus agarose, overnight at 4°C; lysis and wash buffer 50 mM Tris-HCl pH 7.4, 150 mM NaCl, 1% Triton X-100; western blot; IgG isotype control. Background: Immunoblotting shows a protein as a band on a membrane.

The chains behind the UniProt entries cited, without tags or fusion partners.
UniProt O95793: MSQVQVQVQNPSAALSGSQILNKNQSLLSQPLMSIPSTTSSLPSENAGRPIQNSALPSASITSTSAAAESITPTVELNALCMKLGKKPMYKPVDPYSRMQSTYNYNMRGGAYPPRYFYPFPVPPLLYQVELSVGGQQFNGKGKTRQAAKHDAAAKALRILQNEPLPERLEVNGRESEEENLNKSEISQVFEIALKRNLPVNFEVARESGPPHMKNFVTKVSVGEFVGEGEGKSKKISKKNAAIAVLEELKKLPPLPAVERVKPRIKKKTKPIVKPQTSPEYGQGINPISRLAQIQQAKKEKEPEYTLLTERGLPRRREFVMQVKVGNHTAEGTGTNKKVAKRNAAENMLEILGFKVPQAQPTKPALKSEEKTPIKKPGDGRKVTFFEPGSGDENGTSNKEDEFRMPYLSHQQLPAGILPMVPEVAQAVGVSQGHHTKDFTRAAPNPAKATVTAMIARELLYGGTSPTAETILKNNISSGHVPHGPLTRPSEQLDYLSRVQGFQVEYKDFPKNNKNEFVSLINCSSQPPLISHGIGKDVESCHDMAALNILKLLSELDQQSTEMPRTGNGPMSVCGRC
UniProt P19525: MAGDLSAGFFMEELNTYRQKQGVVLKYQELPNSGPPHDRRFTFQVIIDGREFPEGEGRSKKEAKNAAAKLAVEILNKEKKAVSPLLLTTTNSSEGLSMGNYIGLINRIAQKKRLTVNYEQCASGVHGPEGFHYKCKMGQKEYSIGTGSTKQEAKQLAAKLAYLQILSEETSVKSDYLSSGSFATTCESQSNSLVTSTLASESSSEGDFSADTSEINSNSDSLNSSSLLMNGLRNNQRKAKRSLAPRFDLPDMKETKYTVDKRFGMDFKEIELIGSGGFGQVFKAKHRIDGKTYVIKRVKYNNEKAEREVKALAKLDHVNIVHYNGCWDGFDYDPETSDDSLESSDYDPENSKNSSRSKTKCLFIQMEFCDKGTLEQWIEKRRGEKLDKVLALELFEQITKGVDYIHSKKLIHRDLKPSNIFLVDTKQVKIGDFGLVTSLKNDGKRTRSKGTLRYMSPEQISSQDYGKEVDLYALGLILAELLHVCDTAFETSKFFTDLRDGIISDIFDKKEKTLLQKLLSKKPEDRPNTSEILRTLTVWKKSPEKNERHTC

The target of test [2] is recombinant PKR (pPET-PKR/λPP) (UniProt P19525). In words: co-IP; IP on a mixture of purified recombinant proteins (200 ng each protein); immunoblot; IgG control; both purified.
The target of test [3] is recombinant His-tagged Stau1 (pET28a-Stau1) (human) (UniProt O95793). Described as above.
In test [4] the target is protein kinase R (PKR), endogenous in JFH1 HCV-infected Huh7.5 cells (human (endogenous in Huh7.5)) (UniProt P19525). In words: co-IP; lysate (50 μg) of JFH1 HCV-infected Huh7.5 cells, benzonase treated; 2 μg primary antibody, protein A/G Plus agarose, overnight at 4°C; lysis and wash buffer 50 mM Tris-HCl pH 7.4, 150 mM NaCl, 1% Triton X-100; western blot; IgG isotype control.

From PMC4914112 come the findings set out here.

These are yes or no findings as the source states them, for the method shown. For some of these results: Binding seen in cells or lysates may run through a third protein. Some binding calls cover weakened binding; strength is not graded here.

Consider “protein kinase R (PKR), endogenous in JFH1 HCV-infected Huh7.5 cells (from UniProt P19525 1-551)”, for which the binding result in test [1] is on record as “binds”.
Regarding “recombinant His-tagged Stau1 (pET28a-Stau1) (from UniProt O95793 1-577)”, the binding result in test [2] is “binds”.
Regarding “recombinant PKR (pPET-PKR/λPP) (from UniProt P19525 1-551) (enzyme)”, the binding result in test [3] is “binds”.
As for “Staufen1 (Stau1), endogenous in JFH1 HCV-infected Huh7.5 cells (from UniProt O95793 1-577)”, the binding entry in test [4] was “binds”.
